Here are results for three molecules from article doi:10.1101/444570 (bioRxiv, 2018).

Amino acid sequences for entries named in this document (tags omitted). A change or cut given only in a name is not applied to a line headed by its entry.
UniProt Q02732: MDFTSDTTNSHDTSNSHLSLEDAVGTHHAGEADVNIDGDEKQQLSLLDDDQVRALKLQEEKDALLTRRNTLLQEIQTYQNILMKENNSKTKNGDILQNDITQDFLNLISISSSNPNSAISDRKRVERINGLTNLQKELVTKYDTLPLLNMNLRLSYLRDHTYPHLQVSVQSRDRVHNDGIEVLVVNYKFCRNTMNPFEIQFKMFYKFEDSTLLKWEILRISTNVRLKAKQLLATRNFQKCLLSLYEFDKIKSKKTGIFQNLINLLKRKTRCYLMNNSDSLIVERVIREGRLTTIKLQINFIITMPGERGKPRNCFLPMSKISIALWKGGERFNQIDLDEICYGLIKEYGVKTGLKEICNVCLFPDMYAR
UniProt Q06675: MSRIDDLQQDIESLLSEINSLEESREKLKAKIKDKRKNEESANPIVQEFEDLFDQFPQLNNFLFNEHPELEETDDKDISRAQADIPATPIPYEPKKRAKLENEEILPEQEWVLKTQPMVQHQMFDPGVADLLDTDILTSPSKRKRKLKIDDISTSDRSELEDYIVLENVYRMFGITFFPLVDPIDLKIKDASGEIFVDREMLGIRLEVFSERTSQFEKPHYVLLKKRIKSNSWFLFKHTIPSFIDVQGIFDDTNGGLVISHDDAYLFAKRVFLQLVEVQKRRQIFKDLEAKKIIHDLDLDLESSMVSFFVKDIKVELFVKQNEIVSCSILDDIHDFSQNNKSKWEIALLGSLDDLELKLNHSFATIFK

Results are given in words; binding and its absence hold for the method and conditions named. Some entries that bind do so weakly or less than the wild type.

The target in experiment [1] is T1, Sli15-P4-2xStrep/Ipl1 (phosphorylation-mimicking mutant P4) (S. cerevisiae (budding yeast)) (UniProt P38283+P38991).
T1 sequence 1: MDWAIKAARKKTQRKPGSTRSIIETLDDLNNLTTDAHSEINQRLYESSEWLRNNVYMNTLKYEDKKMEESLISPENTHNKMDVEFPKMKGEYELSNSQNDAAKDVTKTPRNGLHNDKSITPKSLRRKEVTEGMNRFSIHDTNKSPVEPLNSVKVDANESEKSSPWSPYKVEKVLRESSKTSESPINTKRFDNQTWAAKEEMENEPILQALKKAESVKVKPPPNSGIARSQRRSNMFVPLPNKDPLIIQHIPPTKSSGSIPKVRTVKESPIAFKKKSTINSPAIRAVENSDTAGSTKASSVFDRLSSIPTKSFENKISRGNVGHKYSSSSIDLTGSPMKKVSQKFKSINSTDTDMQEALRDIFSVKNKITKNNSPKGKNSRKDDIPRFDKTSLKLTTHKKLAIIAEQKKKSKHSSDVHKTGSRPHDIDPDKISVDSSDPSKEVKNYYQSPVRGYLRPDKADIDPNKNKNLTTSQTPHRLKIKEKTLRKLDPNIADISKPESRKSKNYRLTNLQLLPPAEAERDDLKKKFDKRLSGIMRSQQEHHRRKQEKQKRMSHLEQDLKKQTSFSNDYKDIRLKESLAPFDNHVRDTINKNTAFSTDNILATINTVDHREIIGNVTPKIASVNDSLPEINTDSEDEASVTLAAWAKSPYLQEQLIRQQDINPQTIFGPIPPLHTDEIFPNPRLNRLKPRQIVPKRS
T1 sequence 2: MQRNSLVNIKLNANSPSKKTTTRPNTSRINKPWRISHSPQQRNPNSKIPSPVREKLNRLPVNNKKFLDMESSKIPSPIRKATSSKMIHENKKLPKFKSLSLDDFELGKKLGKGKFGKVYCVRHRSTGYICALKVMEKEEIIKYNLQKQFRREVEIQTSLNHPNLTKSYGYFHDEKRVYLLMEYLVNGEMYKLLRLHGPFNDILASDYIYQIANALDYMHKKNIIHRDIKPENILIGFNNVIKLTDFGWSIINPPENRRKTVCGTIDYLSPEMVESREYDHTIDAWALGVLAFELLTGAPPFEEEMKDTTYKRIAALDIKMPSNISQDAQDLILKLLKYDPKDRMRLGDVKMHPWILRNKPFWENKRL
Put plainly: pull-down.

Experiment [2] has as its target T2, Sli15∆N2-500-2xStrep/Ipl1 (S. cerevisiae (budding yeast)) (UniProt P38283+P38991).
T2 sequence 1: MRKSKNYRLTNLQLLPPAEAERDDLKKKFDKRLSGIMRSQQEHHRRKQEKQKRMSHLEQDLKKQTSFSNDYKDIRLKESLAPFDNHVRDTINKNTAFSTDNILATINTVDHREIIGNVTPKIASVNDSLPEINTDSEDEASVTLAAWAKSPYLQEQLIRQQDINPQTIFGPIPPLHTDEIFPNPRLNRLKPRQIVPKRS
T2 sequence 2: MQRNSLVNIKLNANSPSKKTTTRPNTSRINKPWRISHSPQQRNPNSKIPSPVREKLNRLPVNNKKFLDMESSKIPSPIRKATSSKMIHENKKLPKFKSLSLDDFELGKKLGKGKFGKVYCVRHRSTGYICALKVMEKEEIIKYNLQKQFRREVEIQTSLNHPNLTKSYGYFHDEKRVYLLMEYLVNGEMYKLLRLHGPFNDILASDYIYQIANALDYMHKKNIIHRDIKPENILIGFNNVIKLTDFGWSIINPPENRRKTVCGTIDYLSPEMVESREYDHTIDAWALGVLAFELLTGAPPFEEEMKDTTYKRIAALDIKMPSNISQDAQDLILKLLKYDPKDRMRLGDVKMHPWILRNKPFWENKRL
Put plainly: pull-down.

In experiment [3] the target is T3, Sli15-2xStrep/Ipl1 (wild type, not phosphorylated) (S. cerevisiae (budding yeast)) (UniProt P38283+P38991).
T3 sequence 1: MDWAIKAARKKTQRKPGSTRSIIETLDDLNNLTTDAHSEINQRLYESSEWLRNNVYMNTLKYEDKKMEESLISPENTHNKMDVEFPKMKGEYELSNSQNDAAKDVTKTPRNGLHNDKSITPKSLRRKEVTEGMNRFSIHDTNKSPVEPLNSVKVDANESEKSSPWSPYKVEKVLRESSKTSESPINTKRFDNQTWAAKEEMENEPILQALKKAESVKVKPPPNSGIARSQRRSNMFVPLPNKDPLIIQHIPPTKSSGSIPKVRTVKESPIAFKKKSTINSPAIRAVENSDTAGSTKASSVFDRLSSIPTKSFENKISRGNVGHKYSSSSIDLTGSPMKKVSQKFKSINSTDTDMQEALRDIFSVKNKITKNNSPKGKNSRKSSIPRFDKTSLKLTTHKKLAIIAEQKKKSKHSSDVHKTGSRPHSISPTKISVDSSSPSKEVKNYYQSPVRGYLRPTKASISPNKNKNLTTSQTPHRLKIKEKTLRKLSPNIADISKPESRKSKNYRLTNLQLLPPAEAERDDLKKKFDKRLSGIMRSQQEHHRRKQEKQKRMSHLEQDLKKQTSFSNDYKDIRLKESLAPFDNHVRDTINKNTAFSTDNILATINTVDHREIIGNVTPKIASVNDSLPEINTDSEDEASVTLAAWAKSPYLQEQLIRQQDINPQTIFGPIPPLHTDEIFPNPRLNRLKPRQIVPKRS
T3 sequence 2: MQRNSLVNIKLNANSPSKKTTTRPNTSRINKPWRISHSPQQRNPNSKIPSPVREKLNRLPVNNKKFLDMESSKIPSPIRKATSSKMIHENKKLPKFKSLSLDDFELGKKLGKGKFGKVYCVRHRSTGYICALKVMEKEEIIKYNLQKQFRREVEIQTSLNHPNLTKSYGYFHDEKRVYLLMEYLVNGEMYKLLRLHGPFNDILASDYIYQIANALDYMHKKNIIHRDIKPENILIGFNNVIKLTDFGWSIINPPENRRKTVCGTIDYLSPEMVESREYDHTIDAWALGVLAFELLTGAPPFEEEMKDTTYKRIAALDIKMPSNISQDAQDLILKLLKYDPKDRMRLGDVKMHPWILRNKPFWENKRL
Put plainly: pull-down.

The target of experiment [4] is T4, Sli15 (S. cerevisiae (budding yeast)) (UniProt P38283).
T4 sequence: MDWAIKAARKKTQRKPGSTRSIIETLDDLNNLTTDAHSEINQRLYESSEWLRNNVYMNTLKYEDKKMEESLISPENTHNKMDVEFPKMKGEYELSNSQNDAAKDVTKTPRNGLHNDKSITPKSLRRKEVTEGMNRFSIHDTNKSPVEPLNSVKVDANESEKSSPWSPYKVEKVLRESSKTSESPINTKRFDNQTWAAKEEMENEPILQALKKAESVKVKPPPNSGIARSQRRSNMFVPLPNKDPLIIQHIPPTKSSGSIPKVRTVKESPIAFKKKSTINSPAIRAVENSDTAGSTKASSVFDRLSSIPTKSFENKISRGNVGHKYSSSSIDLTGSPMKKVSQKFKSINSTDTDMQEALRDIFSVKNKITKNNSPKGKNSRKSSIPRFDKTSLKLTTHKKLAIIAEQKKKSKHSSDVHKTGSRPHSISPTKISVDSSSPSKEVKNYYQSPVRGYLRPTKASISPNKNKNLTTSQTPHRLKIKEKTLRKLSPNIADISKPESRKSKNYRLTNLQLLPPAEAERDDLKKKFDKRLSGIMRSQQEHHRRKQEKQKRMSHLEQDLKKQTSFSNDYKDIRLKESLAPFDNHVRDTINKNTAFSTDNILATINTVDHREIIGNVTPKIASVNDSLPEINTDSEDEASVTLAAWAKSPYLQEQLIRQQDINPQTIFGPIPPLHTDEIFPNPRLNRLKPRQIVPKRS
Put plainly: co-purification of co-expressed subunits.

With “Ctf19/Mcm21 heterodimer (wild type) (from UniProt Q02732;Q06675) (complex)”, the binding result in experiment [1] and in experiment [2] was “no binding” each time.

For “Ctf19ΔC/Mcm21 (from UniProt Q02732;Q06675) (complex)”, the binding entry in experiment [3] is on record as “no binding (tested: 2-fold molar excess)”.

B1: Ipl1 (enzyme, UniProt P38991 1-367)
chain: MQRNSLVNIKLNANSPSKKTTTRPNTSRINKPWRISHSPQQRNPNSKIPSPVREKLNRLPVNNKKFLDMESSKIPSPIRKATSSKMIHENKKLPKFKSLSLDDFELGKKLGKGKFGKVYCVRHRSTGYICALKVMEKEEIIKYNLQKQFRREVEIQTSLNHPNLTKSYGYFHDEKRVYLLMEYLVNGEMYKLLRLHGPFNDILASDYIYQIANALDYMHKKNIIHRDIKPENILIGFNNVIKLTDFGWSIINPPENRRKTVCGTIDYLSPEMVESREYDHTIDAWALGVLAFELLTGAPPFEEEMKDTTYKRIAALDIKMPSNISQDAQDLILKLLKYDPKDRMRLGDVKMHPWILRNKPFWENKRL
For the molecule B1, in experiment [4], the binding result is “binds”.
